Measured values published in article PMC6606611, “A comparative analysis of secreted protein disulfide isomerases from the tropical co-endemic parasites Schistosoma mansoni and Leishmania major” (Scientific Reports, 2019).

Amino acid sequences for entries named in this document (tags omitted). A change or cut given only in a name is not applied to a line headed by its entry. Residues count along the entry.
UniProt P00747: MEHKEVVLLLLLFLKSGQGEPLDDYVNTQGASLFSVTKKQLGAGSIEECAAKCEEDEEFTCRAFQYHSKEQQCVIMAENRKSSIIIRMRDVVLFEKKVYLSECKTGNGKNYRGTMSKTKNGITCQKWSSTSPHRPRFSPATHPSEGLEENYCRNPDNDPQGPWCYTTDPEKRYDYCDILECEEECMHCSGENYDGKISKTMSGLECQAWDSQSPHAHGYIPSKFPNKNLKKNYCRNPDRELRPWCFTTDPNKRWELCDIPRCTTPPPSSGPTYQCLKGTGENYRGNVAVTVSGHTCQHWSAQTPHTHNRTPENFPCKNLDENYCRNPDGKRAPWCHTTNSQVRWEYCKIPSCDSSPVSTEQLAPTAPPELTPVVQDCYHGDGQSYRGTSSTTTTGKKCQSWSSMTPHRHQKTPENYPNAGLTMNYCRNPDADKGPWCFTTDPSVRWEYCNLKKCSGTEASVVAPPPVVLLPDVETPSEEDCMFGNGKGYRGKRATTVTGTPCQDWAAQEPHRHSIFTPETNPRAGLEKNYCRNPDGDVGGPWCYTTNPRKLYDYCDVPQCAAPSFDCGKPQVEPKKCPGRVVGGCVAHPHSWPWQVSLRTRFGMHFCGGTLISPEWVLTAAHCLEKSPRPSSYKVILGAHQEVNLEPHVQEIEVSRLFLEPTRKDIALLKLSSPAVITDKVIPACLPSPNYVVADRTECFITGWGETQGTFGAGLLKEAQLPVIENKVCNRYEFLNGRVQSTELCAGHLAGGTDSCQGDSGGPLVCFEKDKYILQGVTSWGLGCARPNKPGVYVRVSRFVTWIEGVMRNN
UniProt P15502, residues 27-786: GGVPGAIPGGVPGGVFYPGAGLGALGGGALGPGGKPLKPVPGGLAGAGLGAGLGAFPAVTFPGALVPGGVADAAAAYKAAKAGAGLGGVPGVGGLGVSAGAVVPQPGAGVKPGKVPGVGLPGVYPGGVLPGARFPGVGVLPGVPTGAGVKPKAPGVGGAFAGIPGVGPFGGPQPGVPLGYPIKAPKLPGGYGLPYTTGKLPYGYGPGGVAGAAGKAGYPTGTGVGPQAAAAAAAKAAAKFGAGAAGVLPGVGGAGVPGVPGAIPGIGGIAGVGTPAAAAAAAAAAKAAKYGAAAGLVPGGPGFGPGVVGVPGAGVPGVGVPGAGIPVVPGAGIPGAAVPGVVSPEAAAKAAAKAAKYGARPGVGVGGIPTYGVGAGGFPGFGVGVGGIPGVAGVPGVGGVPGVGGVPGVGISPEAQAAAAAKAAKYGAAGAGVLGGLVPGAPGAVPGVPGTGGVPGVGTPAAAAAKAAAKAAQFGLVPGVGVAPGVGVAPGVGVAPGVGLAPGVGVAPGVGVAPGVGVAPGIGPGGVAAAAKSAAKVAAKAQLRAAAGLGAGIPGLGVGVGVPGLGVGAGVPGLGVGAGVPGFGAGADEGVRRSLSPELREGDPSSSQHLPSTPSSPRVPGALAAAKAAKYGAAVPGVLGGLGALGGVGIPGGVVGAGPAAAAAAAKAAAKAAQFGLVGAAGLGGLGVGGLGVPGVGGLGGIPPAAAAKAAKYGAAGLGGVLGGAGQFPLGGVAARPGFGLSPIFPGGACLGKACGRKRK
UniProt P07996, residues 19-1170: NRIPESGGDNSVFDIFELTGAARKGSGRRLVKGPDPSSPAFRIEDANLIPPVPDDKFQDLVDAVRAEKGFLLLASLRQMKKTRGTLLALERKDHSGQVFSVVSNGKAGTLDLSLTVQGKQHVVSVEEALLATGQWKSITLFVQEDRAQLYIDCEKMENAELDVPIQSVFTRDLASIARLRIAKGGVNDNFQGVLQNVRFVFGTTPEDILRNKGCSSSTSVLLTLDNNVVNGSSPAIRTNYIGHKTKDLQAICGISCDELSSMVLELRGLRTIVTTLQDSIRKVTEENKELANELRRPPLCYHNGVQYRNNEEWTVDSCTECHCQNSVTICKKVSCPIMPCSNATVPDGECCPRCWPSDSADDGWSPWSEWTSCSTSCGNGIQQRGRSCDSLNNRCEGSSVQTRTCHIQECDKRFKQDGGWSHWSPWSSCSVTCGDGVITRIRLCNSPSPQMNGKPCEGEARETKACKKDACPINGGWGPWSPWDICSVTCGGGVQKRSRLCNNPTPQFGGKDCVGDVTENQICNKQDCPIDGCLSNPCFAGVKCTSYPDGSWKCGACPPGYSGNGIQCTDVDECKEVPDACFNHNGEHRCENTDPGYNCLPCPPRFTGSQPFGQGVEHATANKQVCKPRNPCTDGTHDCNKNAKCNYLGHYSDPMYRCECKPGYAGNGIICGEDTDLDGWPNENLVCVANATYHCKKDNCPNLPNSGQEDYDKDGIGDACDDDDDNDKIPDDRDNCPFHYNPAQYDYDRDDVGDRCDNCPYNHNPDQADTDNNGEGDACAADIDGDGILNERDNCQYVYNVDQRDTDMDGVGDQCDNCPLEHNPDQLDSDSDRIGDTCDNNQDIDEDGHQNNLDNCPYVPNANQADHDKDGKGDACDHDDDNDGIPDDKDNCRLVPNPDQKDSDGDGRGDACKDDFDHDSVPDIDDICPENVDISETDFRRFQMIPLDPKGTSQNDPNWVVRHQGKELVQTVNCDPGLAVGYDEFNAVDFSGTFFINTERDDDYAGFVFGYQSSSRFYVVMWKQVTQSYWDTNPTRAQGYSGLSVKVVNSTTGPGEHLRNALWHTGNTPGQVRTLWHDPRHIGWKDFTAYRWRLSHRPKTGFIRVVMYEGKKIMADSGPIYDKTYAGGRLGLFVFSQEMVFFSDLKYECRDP
UniProt Q9H6X2, residues 33-321: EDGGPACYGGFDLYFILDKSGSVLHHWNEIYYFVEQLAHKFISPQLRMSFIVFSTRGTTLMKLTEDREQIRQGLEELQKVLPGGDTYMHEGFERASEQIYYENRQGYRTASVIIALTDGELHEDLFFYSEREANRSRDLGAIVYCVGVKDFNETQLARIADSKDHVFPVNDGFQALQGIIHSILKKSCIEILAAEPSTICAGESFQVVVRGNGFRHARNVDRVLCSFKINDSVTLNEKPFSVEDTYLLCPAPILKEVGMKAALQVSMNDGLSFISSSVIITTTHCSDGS
UniProt P04004, residues 20-478: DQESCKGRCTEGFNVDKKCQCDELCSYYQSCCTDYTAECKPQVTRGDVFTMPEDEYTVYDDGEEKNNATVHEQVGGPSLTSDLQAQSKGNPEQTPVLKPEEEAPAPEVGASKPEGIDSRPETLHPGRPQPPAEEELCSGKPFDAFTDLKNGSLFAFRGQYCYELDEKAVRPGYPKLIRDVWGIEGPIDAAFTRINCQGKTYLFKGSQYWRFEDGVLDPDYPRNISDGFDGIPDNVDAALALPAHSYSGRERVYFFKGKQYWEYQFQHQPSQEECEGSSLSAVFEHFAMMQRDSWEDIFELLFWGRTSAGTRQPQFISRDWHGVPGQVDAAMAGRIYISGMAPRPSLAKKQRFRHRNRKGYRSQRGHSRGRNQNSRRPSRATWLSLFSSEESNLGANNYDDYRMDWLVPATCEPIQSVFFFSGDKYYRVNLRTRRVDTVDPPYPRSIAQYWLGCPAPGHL
UniProt P38658: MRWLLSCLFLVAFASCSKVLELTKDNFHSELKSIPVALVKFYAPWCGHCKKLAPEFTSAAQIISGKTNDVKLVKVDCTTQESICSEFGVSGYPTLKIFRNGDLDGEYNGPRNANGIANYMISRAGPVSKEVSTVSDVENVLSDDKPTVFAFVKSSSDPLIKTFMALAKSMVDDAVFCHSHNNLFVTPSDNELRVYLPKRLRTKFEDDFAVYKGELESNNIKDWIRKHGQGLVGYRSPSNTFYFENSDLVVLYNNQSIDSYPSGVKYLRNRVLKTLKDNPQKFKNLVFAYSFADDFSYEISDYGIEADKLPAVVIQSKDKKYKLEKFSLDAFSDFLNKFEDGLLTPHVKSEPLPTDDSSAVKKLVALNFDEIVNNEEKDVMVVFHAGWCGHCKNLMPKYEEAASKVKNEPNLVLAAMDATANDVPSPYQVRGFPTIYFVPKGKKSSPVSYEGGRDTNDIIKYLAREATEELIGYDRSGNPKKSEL

Experiments:
Experiment in all cases: SPR; both purified
Plasminogen (human) = Plasminogen (human) (UniProt P00747)
Tropoelastin (human) = Tropoelastin (human) (UniProt P15502)
thrombospondin-1 = thrombospondin-1 (UniProt P07996)
[1] = target: ectodomain of the tumor endothelial marker 8 (TEM-8), also known as anthrax receptor 1 (human) (UniProt Q9H6X2)
vitronectin = vitronectin (UniProt P04004)

Substance | binding (Plasminogen (human)) | binding (Tropoelastin (human)) | binding (thrombospondin-1) | binding [1] | binding (vitronectin)
Schistosoma mansoni Endoplasmic Reticulum protein 60 (protein disulfide isomerase) (from UniProt P38658) (enzyme) | binds | binds | no binding (tested: 500 nM) | binds | no binding (tested: 500 nM)
Leishmania major Protein Disulfide Isomerase (from UniProt Q8I8E1) (enzyme) | no binding (tested: 500 nM) | no binding (tested: 500 nM) | no binding (tested: 500 nM) | no binding (tested: 500 nM) | no binding (tested: 500 nM)

These are yes or no findings as the source states them, for the method shown. For some of these results: Binding can be weak; no strength is given.
